Reference: publication PMC10477102
Results are given in words; binding and its absence hold for the method and conditions named. In cells and extracts the contact can be indirect. A result given as binding can be weak or reduced; the word gives no strength. Where a sequence is shown, tags or fusion partners need not be part of it.

Experiments:
[1] = target: T1, Fibroblast growth factor 11 (flag-h.FGF11, from pFlag-CMV2-human FGF11) (human) (UniProt Q92914); assay: co-IP; Hep3B cells transfected with FGF11 and/or FXRα1 expression vectors, 24 h; lysed in RIPA buffer; precipitated with anti-FLAG antibody (4 °C, 12 h), protein G-Sepharose; blot with anti-HA
T1 sequence: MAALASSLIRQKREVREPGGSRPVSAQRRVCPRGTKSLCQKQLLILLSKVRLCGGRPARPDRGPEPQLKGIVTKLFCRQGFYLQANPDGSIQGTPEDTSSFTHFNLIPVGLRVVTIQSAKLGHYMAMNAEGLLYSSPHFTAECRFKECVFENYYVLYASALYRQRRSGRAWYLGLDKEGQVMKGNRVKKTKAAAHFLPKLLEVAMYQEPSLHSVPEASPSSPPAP

[2] = target: HA-tagged full-length farnesoid X receptor alpha 1 (FXRα1); assay: co-IP; Hep3B cells transfected, 24 h; lysed in RIPA buffer; precipitated with anti-HA antibody (4 °C, 12 h), protein G-Sepharose; blot with anti-FLAG

Molecule	binding [1]	binding [2]
HA-tagged full-length farnesoid X receptor alpha 1 (FXRα1)	binds	
Fibroblast growth factor 11 (flag-h.FGF11, from pFlag-CMV2-human FGF11) (protein, UniProt Q92914 1-225) MAALASSLIRQKREVREPGGSRPVSAQRRVCPRGTKSLCQKQLLILLSKVRLCGGRPARPDRGPEPQLKGIVTKLFCRQGFYLQANPDGSIQGTPEDTSSFTHFNLIPVGLRVVTIQSAKLGHYMAMNAEGLLYSSPHFTAECRFKECVFENYYVLYASALYRQRRSGRAWYLGLDKEGQVMKGNRVKKTKAAAHFLPKLLEVAMYQEPSLHSVPEASPSSPPAP		binds
